Experimental data as given in article PMC5761851, “Application of a phenotypic drug discovery strategy to identify biological and chemical starting points for inhibition of TSLP production in lung epithelial cells” (PLoS ONE, 2018).
Where “and” joins values, the source holds several entries; their conditions need not be identical. Equal values may be shown once. Read-outs that look alike come from different tables or passages of the source.

System: TSLP production in NHBE cells
Assay: TSLP HTRF assay (TSLP production in poly I:C / IL-4 stimulated NHBE cells)
Assay type: cell-based, human
Procedure: For dose response curves determinations, stocks of test compounds at a concentration of 1.33x10^-3 M in DMSO were sequentially diluted at 1:4 dilution steps before further 1/50 dilution in BEBM medium containing 1x ITS and 0.1% BSA. For the highest 4 μM concentration test compounds were resuspended in DMSO at a concentration of 2.5x10^-3 M and diluted 1/25 in BEBM medium containing 1x ITS and 0.1% BSA before adding 1 μl to the wells containing the cells.
All subsequent steps were automated using a Sciclone® G3 workstation (Perkin Elmer) with a Twister™ II robot (Perkin Elmer). […] 1 μl of test compound solution prepared at 25x concentration was added to the wells containing NHBE cells. The plates were then incubated during 90 minutes at 37°C, 5% CO2, 90% humidity before adding poly I:C (Invivogen HMW Tirl-pic-5) and human IL-4 (Peprotech 200–04) stimulus in 4 μl of BEBM medium containing 1x ITS, 0.1% BSA and 0.1% DMSO using a Multidrop™. […] Cells were then incubated for 24h in the presence of test compounds and stimulus at 37°C, 5% CO2 and 90% humidity conditions. After the 24h incubation period the plates were transferred to a CyBi®-Well platform (CyBio AG) to collect 10 μl of the supernatants which were transferred to a new plate. TSLP levels in the supernatant were determined using a homogeneous Time-Resolved Fluorescence (HTRF) assay custom developed by Cisbio. […]

For `C[C@@H]1CCN(C(=O)CC#N)C[C@@H]1N(C)c1ncnc2[nH]ccc12` [Tofacitinib, reference compound], the IC50 (Homo sapiens, NHBE, 24 h, NHBE cells donor #1, poly I:C / IL-4, 24h, geometric mean, read-out: Inhibition of TSLP protein production (IC50, μM) (95% CI)) was 0.299 µM and the IC50 (individual values, donor #1, read-out: Inhibition of TSLP production in NHBE (IC50)) was 0.448 µM and 0.149 µM and 0.403 µM.
